Experimental data published in the supplement of paper PMC3334620.
In all, about 33,000 sequences were measured (“E-score (-0.5 to 0.5)”: median about -0.016, highest 2% from about 0.3 on). Some of the results follow.

Biological target: T1, Yer184c (UniProt P39961)
T1 sequence: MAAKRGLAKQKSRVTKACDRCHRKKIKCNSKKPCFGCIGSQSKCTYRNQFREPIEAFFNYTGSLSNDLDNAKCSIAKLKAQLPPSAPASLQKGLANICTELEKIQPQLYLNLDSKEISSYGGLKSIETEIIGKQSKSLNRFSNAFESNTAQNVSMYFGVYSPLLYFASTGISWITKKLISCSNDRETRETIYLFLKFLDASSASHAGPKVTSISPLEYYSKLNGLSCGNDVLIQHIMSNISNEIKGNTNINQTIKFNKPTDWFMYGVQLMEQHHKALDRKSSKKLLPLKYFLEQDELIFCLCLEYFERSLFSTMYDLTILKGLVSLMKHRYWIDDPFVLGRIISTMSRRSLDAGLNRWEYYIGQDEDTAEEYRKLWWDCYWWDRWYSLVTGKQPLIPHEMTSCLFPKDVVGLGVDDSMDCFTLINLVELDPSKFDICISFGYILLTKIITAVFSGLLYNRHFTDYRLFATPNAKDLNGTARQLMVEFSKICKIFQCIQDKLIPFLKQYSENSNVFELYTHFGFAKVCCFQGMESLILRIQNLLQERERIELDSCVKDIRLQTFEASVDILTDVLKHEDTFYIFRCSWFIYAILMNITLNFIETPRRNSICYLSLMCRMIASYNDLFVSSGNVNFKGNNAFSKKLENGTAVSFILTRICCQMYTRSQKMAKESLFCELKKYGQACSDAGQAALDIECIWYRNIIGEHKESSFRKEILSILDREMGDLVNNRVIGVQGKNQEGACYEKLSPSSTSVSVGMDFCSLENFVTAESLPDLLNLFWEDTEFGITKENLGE
Experiment: PBM E-score (8-mer binding enrichment) (E-score (-0.5 to 0.5)); higher = stronger / more preferred TF binding
Conditions: protein concentration: 100 nM; construct: GST-full length
Method: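 Universal 'all 10-mer' protein binding microarrays (Agilent AMADID 015681) probed with GST-tagged S. cerevisiae TFs (full-length or DBD) made by in vitro transcription/translation (PURExpress), about 100-200 nM. Bound TF was detected with fluorescent anti-GST. Each ungapped 8-mer (which stands for itself and its reverse complement) is scored by the PBM enrichment score (E-score), a modified Wilcoxon-Mann-Whitney statistic from -0.5 to +0.5, computed with the Universal PBM Analysis Suite. Scale: above 0.35 generally sequence-specific binding.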

Sequence	PBM E-score
ACTTTCCT	-0.192
GACGGCAA	0.148
TAACCCAA	0.0728
CGTCGAGC	0.0409
TCATGGCA	0.0078
AGTAAGGA	-0.038
CCCAATTC	0.138
GGCAGGGA	-0.0696
CAATCGCG	-0.142
ACGCGACC	-0.116
ACCATGTC	-0.123
CGGTTTTA	0.225
CATTCCCC	-0.0977
CTGCTATA	0.023
GCGTGACA	0.02
CCTAAGCA	-0.098
GAAATGCA	0.0215
GCGCTGCC	-0.154
CAATCGAG	-0.226
GGTAATTA	0.243
GACATGAC	-0.169
CCGAATTC	0.334
AAGCTCTA	-0.0562
ATCACGGG	-0.164
CGACGGCA	-0.101

Looked up above:
For PBM E-score, CGGTTTTA has the entry 0.225
For PBM E-score, CATTCCCC has the entry -0.0977
For PBM E-score, CGACGGCA has the entry -0.101
For PBM E-score, CAATCGCG has the entry -0.142
For PBM E-score, GGTAATTA has the entry 0.243
For PBM E-score, CCCAATTC has the entry 0.138

The list goes on:

Sequence	PBM E-score
CGCTGGAA	0.0192
GGAAGTAA	0.0987
AGCAGTCC	-0.0967
CGCGCTGA	-0.0318
GACATTCA	0.00052
ATAGATAC	0.0299
TTACTGAA	0.164
GTACACGA	0.0442
CCGTATGA	0.219
TCTGCTCA	-0.201
CAAAAGGG	-0.101
GAAAAGAC	0.191
CGCCTTAC	-0.179
CTAAGACA	-0.0196
GACAAATC	0.0451
CCGGTTTC	0.244
GAAAAAAA	0.223
AGGCCCTG	-0.328
AACCCGCG	0.226
CCCCGACG	-0.0191
AACATGTG	0.104
CGGTGACA	0.224
CATAGCAC	0.00647
CTAAACAG	0.0321
CTAGACGC	-0.176

Sequence	PBM E-score
CTAAAGAG	-0.142
CTTATTTC	0.184
ATTACTTA	0.148
CGTTACCA	-0.138
CCGTACCA	0.166
GTCATAAC	-0.123
CCACCGGG	-0.00255
CATTTAAA	0.271
CCGGTTTA	0.176
AGGCCAGA	-0.0609
AAAAGTGC	-0.11
GAATCATA	0.103
CATCACTA	0.0525
GATTTACA	0.194
AGTTTTTG	0.224
GCACCGAC	0.0749
CACTACGA	0.185
GAAGCTGA	0.21
GGATTAGA	-0.117
AGATAACG	0.0284
GGCAGGAC	-0.117
GCCTCCCA	-0.3
GAACGACA	0.0411
CACTGTAC	-0.31
CATAATGC	-0.0707

Sequence	PBM E-score
ACGTTGCT	-0.0994
AATTAGCC	0.113
AGATTATG	-0.0137
AGCGTGGG	-0.269
CCATCCCC	-0.24
ACATCATA	0.123
CACATGCG	-0.074
CTCTTAGA	0.0666
AGAAAAAC	0.154
TCGTCACA	0.00564
CCGGTCCC	0.0884
ATTACGAG	-0.116
GTGAGCCA	-0.175
CAATGGAA	0.154
ATAAATAA	0.279
CCTCTTCA	-0.18
ATAAGTAA	0.0957
CGGGATCC	0.269
CCGTGAAA	0.2
CTTTACTA	0.177
AACTTGCA	-0.133
GCCCCTGA	-0.192
ACGGTTTG	0.147
CCACTTTC	-0.212
AATCACCA	0.0641

Sequence	PBM E-score
ACAGGCCC	-0.349
AACTAAAT	-0.0404
GTAACGAC	-0.0189
CATTCTTC	-0.107
TACCAAAA	0.0716
CACTAGCA	-0.313
AGATACGA	0.0973
ATGGGCTG	-0.305
CGAATGGC	0.0702
TCGGCCAA	0.193
CAGGGACG	-0.187
CAGCCCAA	-0.0561
GGCCACGA	-0.0979
CCCACTGC	-0.227
TCGTGCCA	-0.0537
TAGCTCCA	-0.0638
AGTGGCGG	-0.0491
CGAACCGA	0.328
TCGCCCGA	-0.0544
CGGATAGC	0.238
CCGTCAAA	0.0576
GATTTGAA	0.163
GAGAGCCC	-0.319
ACAGTCTG	-0.15
GAGCCAGA	-0.0585

Sequence	PBM E-score
CTGACTGC	-0.268
GTGGAGGA	-0.0625
GACACGCC	-0.118
GGAAATTA	0.201
AGCTGGTA	-0.148
CTCAGTCA	-0.0672
TACTCAGA	0.142
ACATCGAT	0.0644
ATTAGAGC	0.0465
ACTAAGGA	-0.0376
GCCTGATA	-0.173
AAAGGAAG	0.106
CTCGCGAA	-0.0706
GTACCTCA	-0.0731
CTAGGCAC	-0.14
TACGATAA	0.0543
CAAATTTC	0.175
AACTCGCT	0.0751
AGCTCGCA	-0.0221
GACCACTC	-0.0477
ACATACCG	-0.0905
AGCATCAT	-0.0505
GCGAACGC	-0.0962
CAGCTTGC	-0.0215
CTAGCAGC	-0.0845

Sequence	PBM E-score
CACTGTTC	-0.0254
TAAGTTCA	0.0634
AGTTCGGG	0.252
GCATCGTA	-0.0659
GCAGTCTA	-0.161
ATCTGCAG	0.086
GAAATTAC	0.209
GCAGCTAA	-0.0221
CGCAGTAA	-0.0204
AAAAGTAC	0.0767
GGTTAGTA	0.0879
CCAGATTA	0.0514
ATGTTACA	0.195
ACTAGTTC	0.108
ACCCCTTG	-0.291
ATATACAG	0.143
TCAGCAAA	0.158
ATTTCCTA	0.197
AAGTTTCT	0.0681
ATCCGTCA	0.056
ACGGGCGG	-0.229
GAGAGCGC	-0.218
